Measurements taken from PubChem BioAssay AID504648 (National Center for Advancing Translational Sciences (NCATS), 2011).
Hit rate of the full screen: of about 390,000 compounds, about 610 (0.16%) were called active. The inconclusive results got no clear call from the source; some entries with a clear call stand among them for comparison. Calls follow the shape of the dose curve; as a rule, active = well fitted inhibition curve with a large enough effect; inconclusive = small, poorly fitted or top-dose-only effect, or effect the other way, or another doubt; inactive = no such curve, though single readings can be large or run the other way. Potencies of inconclusive entries are doubtful fits and often do not repeat.

experiment: Nrf2 qHTS screen for inhibitors: counterscreen for cytotoxicity; conditions: A549 ARE-Fluc cells, CellTiter-Fluor viability, 18-24 h; activity change, negative = cytotoxicity: at 46 µM (top of the series)
Method in brief: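 A549 ARE-Fluc cells in 5% FBS OPTI-MEM, 5000 cells/well, rested 2 h then exposed to compounds in concentration-response for 18-24 h at 37 °C. Viability by CellTiter-Fluor fluorescence (Ex 405/Em 525) after 30 min; luciferase luminescence (BugLite, 15 min, RT) read afterwards.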
% is scaled to controls: 0 for no effect and ±100 for the full control effect; potency is read from the fitted curve at half-maximal effect.

| Compound | Potency | activity change, negative = cytotoxicity |
| --- | --- | --- |
| CCS(=O)(=O)c1ncc(Cl)c(C(=O)N(Cc2ccccc2)Cc2ccco2)n1 | active: 16.4 µM | – |
| COc1cccc(S(=O)(=O)NCc2ccc(C(=O)Nc3cccc(Cl)c3)cc2)c1 | inconclusive: 20.6 µM [falling, single point] | – |
| C/C(=N\Nc1ccc(Cl)c(C(=O)O)c1)c1ccccn1 | – | inactive: -0.506% |
| COc1ccc(OC)c(-n2c(C)cc(/C=C3\C(=N)N4N=C(CC(=O)N5CCOCC5)SC4=NC3=O)c2C)c1 | inconclusive: 23.1 µM [falling, single point] | – |
| CCOc1cccc(-c2cc(-c3n[nH]c(=S)n3CC)c3ccccc3n2)c1 | inconclusive: 11.6 µM [falling, partial curve, poor fit] | – |
| CCn1c(C)cc(/C=C2/SC(=S)N(CC(=O)O)C2=O)c1C | inconclusive: 20.6 µM [falling, partial curve, poor fit] | – |
| Cc1c(O)ccc2c(CC(=O)N[C@@H](Cc3ccccc3)C(=O)O)cc(=O)oc12 | inconclusive: 20.6 µM [activator, single point] | – |
| COc1ccccc1N1CCN(C(=O)C(NS(=O)(=O)c2cccs2)c2ccccc2)CC1 (stereo not given) | – | inactive: -0.845% |
| CCOC(=O)Nc1cccc(OCC(=O)Nc2ccccc2OC)c1 | – | inactive: -5.9% |
| Nc1ccc(C(=O)N/N=C/c2sc(N3CCOCC3)nc2-c2ccccc2)cc1 | – | inactive: -14.6% |
| COc1ccc(-c2cc(C)no2)cc1S(=O)(=O)Nc1cccc(C(F)(F)F)c1 | – | inactive: 5.24% |
| COc1ccc(-c2[nH]c(-c3ccc(F)cc3)nc2SCC(=O)Nc2ccc(OC)c(OC)c2)cc1 | inconclusive: 29.1 µM [falling, partial curve, poor fit] | – |
| c1ccc(CSc2ccc(-c3ccccn3)nn2)cc1 | inconclusive: 23.1 µM [falling, partial curve] | – |
| COc1cccc(OC)c1C(=O)Nn1c(-c2cccc(C)c2)nc2ccccc2c1=O | inconclusive: 32.6 µM [falling, partial curve, poor fit] | – |
| O=[N+]([O-])c1cccc(-c2nc(-c3cccs3)c(-c3cccs3)[nH]2)c1 | – | inactive: -12.9% |
| Cc1ccc(C)n1-c1nccc(-c2cccs2)n1 | inconclusive: 9.2 µM [activator, partial curve, poor fit] | – |
| COc1ccc(OC)c(C(=O)N(C[C@H]2CC[C@@H]([C@@H]3CC[C@H](CO)O3)O2)C(C(=O)NC(C)(C)C)c2ccc(-c3ccccc3)cc2)c1 (stereo not given in full) | inconclusive: 18.4 µM [falling, single point] | – |
| Cc1ccc(-n2c(SCc3nc(-c4ccccc4C)no3)nnc2-c2ccncc2)cc1C | inconclusive: 29.1 µM [falling, single point] | – |
| COC(=O)C1CSC(C(=O)OC)N1C(=O)Nc1ccc(Cl)c(Cl)c1 (stereo not given) | – | inactive: -1.16% |
| CC1CCCCC1NC(=O)COC(=O)COc1ccccc1F (stereo not given) | – | inactive: 2.51% |
| COc1cc(NC(=O)CCCSc2nc(-c3ccco3)cc(C(F)(F)F)n2)cc(OC)c1OC | inactive | – |
| COc1ccc(NS(=O)(=O)c2ccc(O)c(NC(=O)c3cc4c(C)nn(-c5ccc(F)cc5)c4s3)c2)cc1 | inconclusive: 29.1 µM [falling, partial curve, poor fit] | – |

| Compound | Potency | activity change, negative = cytotoxicity |
| --- | --- | --- |
| COc1cccc(Cn2c(SCc3ccc(C(=O)N4CCC(C)CC4)cc3)nc3ccncc32)c1 | inconclusive: 29.1 µM [falling, partial curve, poor fit] | – |
| CCN(c1ccccc1)S(=O)(=O)c1cc(C(=O)Nc2ccc(Br)cc2)ccc1F | inconclusive: 29.1 µM [falling, single point] | – |
| CCOC(=O)c1c(Nc2ccccc2)nnc(-c2ccccc2)c1-c1ccccc1 | inconclusive: 23.1 µM [falling, partial curve, poor fit] | – |
| COc1ccc(CNC(=O)CN2CCSc3ccccc32)c(OC)c1 | inconclusive: 11.6 µM [activator, partial curve, poor fit] | – |
| Cc1cc2oc(C(=O)N(Cc3ccccc3)C3CCS(=O)(=O)C3)cc(=O)c2cc1C (stereo not given) | – | inactive: -8.62% |
| CCN(CC)c1ccc2nc3ccc(N)cc3[n+](-c3ccccc3)c2c1 | active: 18.4 µM | – |
| Cc1cc(-c2nc3ncccc3o2)ccc1NC(=O)COc1ccc(C(C)(C)C)cc1 | – | inactive: -4.08% |
| Cc1ccc(C(=O)n2c(-c3ccccc3)cnc2SCC(=O)Nc2ccc(C)cc2C)cc1 | inconclusive: 23.1 µM [falling, partial curve, poor fit] | – |
| O=Cc1c(Cl)nc2ccccn2c1=O | – | inactive: 1.44% |
| Nc1ccc(C#Cc2ccc3oc4ccccc4c(=O)c3c2)cc1 | – | inactive: -8.56% |
| COc1cc(C(=O)N=c2sc3c(C)ccc(OC)c3n2C)cc(OC)c1OC | – | inactive: -6.15% |
| CCCCCCCCn1c2c(c(=N)c3ccccc31)CCC2 | inconclusive: 8.2 µM [falling, partial curve] | – |
| CC(NNC(=S)N1CCN(c2ccccn2)CC1)c1nccc2ccccc12 (stereo not given) | inconclusive: 8.2 µM [falling, partial curve, poor fit] | – |
| CC(C)c1cc(C(=O)NNC(=S)NCc2ccco2)c(O)c(C(C)C)c1 | – | inactive: -0.718% |
| O=C(CSc1nc2c([nH]c3ccccc32)c(=O)n1-c1ccc(Cl)cc1)N1CCCCCC1 | inconclusive: 23.1 µM [falling, single point] | – |
| COc1ccc(SCCN2CCN(CCc3ccccc3)CCC2=O)cc1 | – | inactive: -17.3% |
| C[C@]12c3[nH]c4cc(-c5ccco5)ccc4c3CCN1C(=O)[C@@H](CC(=O)NCc1ccco1)C[C@@H]2C(=O)N1CCCCC1 | inconclusive: 23.1 µM [falling, partial curve, poor fit] | – |
| COc1ccccc1OCCN(C#N)c1nc(N(C)C)nc(N(C)C)n1 | inconclusive: 11.6 µM [activator, partial curve, poor fit] | – |
| Cc1ccccc1N(CC(=O)N/N=C/c1ccc(Cl)cc1)C(=O)c1ccccc1 | inconclusive: 29.1 µM [falling, single point] | – |
| CN1/C(=C\C(=O)C[n+]2ccc3ccccc3c2)C(C)(C)c2ccccc21 | inconclusive: 20.6 µM [falling, partial curve, poor fit] | – |
| COc1ccc(Br)c(-c2nc(CS(=O)(=O)c3ccc(F)cc3)no2)c1 | inconclusive: 9.2 µM [activator, partial curve, poor fit] | – |
| CC(C)N(CCn1c(SCC(=O)N2CC(=O)Nc3ccccc32)nc2ccccc2c1=O)C(C)C | inconclusive: 20.6 µM [falling, partial curve, poor fit] | – |

| Compound | Potency | activity change, negative = cytotoxicity |
| --- | --- | --- |
| O=C(NCCc1ccccc1)c1ccc2c(c1)S(=O)(=O)N=C1CCCCCN12 | – | inactive: -0.746% |
| CC1=NN(c2ccccc2)C(=O)/C1=C/C=C/c1ccccc1 | – | inactive: 6.22% |
| C=CC(=O)Nc1ccc(Nc2ccnc(Nc3ccc(N4CCN(C)CC4)cc3)n2)cc1 | active: 9.2 µM | – |
| CCCCN1CC(O)=C(c2nc3ccccc3s2)C1=N | – | inactive: -10.1% |
| CO[C@H]1C=CO[C@@]2(C)Oc3c(C)c(O)c4c(O)c(c(C=NN5CCN(C)CC5)c(O)c4c3C2=O)NC(=O)C(C)=CC=C[C@H](C)[C@H](O)[C@@H](C)[C@@H](O)[C@@H](C)[C@H](OC(C)=O)[C@@H]1C | inconclusive: 14.6 µM [falling, partial curve] | – |
| COc1ccc(-c2nn(-c3ccccc3)cc2/C=N/NC(=O)c2ccc(Br)o2)cc1 | inconclusive: 16.4 µM [falling, partial curve] | – |
| CCN(CC)C(=O)CSc1nc2ccccc2c(=O)n1-c1ccccc1OC | inconclusive: 2.31 µM [falling, partial curve, poor fit] | – |
| CN1CCN(C(=S)SCC(=O)Nc2nc(-c3ccccc3)c(-c3ccccc3)o2)CC1 | inconclusive: 29.1 µM [falling, partial curve, poor fit] | – |
| Nc1ccc(Nc2ccc([N+](=O)[O-])cc2[N+](=O)[O-])cc1 | inconclusive: 13 µM [falling, partial curve] | – |
| COc1ccc(C(=O)c2ccccc2C(=O)c2ccccc2)cc1 | – | inactive: -0.86% |
| Cc1ccc(C(=O)Nc2nc(-c3nnn(-c4cccc(C(F)(F)F)c4)c3C)ns2)cc1 | – | inactive: 3.98% |
| COc1cc(/C=C(/C#N)c2nc3ccccc3[nH]2)ccc1OCc1ccc(C(=O)O)o1 | inconclusive: 32.6 µM [falling, partial curve, poor fit] | – |
| Cc1cccc(-c2nc(CN3CCCC(C(=O)NC4CCCCCC4)C3)c(C)o2)c1 (stereo not given) | inconclusive: 0.82 µM [activator, partial curve] | – |
| CC1(C)OC(=O)N(c2ccccc2)C12C=Cc1cc(Br)ccc1O2 (stereo not given) | inconclusive: 3.66 µM [falling, partial curve, poor fit] | – |
| O=C(c1cc2ccc([N+](=O)[O-])cc2oc1=O)N1CCOCC1 | inconclusive: 32.6 µM [falling, partial curve, poor fit] | – |
| Cc1cc(N=Nc2ccccc2)cc(C)c1NC(=O)C(F)(F)F | inconclusive: 29.1 µM [falling, partial curve, poor fit] | – |
| COCCNC(=O)c1cccc(Nc2nc(-c3ccccc3)c3cc(Cl)ccc3n2)c1 | inconclusive: 18.4 µM [falling, single point] | – |
| Cc1ccc(C)c(S(=O)(=O)Nc2ccccc2C(=O)Nc2ccc(S(=O)(=O)Nc3ncccn3)cc2)c1 | – | inactive: 1% |
| Cc1nc2cc(NC(=O)Nc3ccc(Br)cc3)ccc2o1 | inconclusive: 13 µM [falling, partial curve] | – |
| Nc1c(C(=O)c2ccccc2)sc(Nc2ccccc2)c1S(=O)(=O)c1ccccc1 | – | inactive: -21.3% |
| CCOC(=O)N1CC=C2C(C#N)=C(N)C(C#N)(C#N)[C@H](c3ccccc3OCC)[C@H]2C1 | inconclusive: 23.1 µM [falling, single point] | – |

Some of the entries so far, bar-delimited:
Compound | Potency | activity change, negative = cytotoxicity
COc1cccc(OC)c1C(=O)Nn1c(-c2cccc(C)c2)nc2ccccc2c1=O | inconclusive: 32.6 µM [falling, partial curve, poor fit] | –
O=[N+]([O-])c1cccc(-c2nc(-c3cccs3)c(-c3cccs3)[nH]2)c1 | – | inactive: -12.9%
Cc1ccc(C)n1-c1nccc(-c2cccs2)n1 | inconclusive: 9.2 µM [activator, partial curve, poor fit] | –
